In PubChem BioAssay AID493014 (National Center for Advancing Translational Sciences (NCATS), 2011):
Hit rate of the full screen: of about 340,000 compounds, about 170 (0.05%) were called active. The shares of active, inactive and inconclusive entries below differ from those in the screen. Calls come from the whole dose curve; as a rule, active = well fitted inhibition curve with a large enough effect in the signal ratio, with a control signal flat (not every such curve was filed as active); inconclusive = small, poorly fitted or top-dose-only effect, or effect the other way, or a change in a side signal; inactive = flat fitted curve, though single readings scatter; the % refers to the signal ratio. Potencies of inconclusive entries are doubtful fits and often do not repeat.
Potency is the fitted concentration of half-maximal effect.

Experiment: qHTS Assay to Find Inhibitors of Chronic Active B-Cell Receptor Signaling;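 for activity change, negative = inhibition: plate controls were basal doxycycline-induced cells for no effect and cells given 10 µM MG132 for full effect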
Details: ABC-DLBCL IkBa-CBG/CBR reporter, luminescence ratio (green luciferase fused to IkBa over red control in TMD8 lymphoma cells), 4 h; activity change, negative = inhibition: at 46.1 µM (top of the series)
Procedure, shortened: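 TMD8 ABC-DLBCL cells carrying doxycycline-inducible green luciferase fused to IkappaBalpha plus unfused red luciferase were exposed to compounds (up to 46 uM) for 4 hrs at 37C. Activity came from the overlap-corrected green/red luminescence ratio.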
For `Cc1ccc(C(=O)C2CCN(CC(=O)NC3CCCCC3)CC2)cc1`, the activity change, negative = inhibition was inconclusive: -2.31%.
For `CCN(CC)C(=O)[C@H]1C[C@H](CC(=O)NCCc2ccccn2)C(=O)N2CCc3c([nH]c4ccc(Cl)cc34)[C@]12C`, the activity change, negative = inhibition was inconclusive: -18.7%.
For `O=C(O)c1ccc(Nc2nc3ccccc3nc2NS(=O)(=O)c2cccs2)cc1`, the activity change, negative = inhibition was inconclusive: 207%.
For `COc1ccc(O)c(C(=O)c2cnn(-c3ccccc3)c2)c1`, the Potency was inconclusive: 12.6 µM [falling, partial curve].
With `CSc1nc2ccccc2cc1/C=C(\C#N)c1cccc(Cl)c1` the activity change, negative = inhibition was “inactive”.
With `CCOc1ccc(NC(=O)CN2CCN(CC(=O)Nc3cc(OC)cc(OC)c3)CC2)cc1` the Potency was inconclusive: 18.4 µM [falling, single point].
In the case of `NC(=O)c1ccc(NC(=O)c2cnc3ccccc3n2)cc1`, the activity change, negative = inhibition is reported as inconclusive: 0.384%.
In the case of `Cc1ccc2cc(C#N)c(NCc3ccco3)nc2c1`, the Potency is reported as inconclusive: 0.517 µM [rising, full curve, poor fit].
In the case of `Cc1cc(C)c(C)c(S(=O)(=O)N2CCC(C(=O)NNC(=O)c3ccccc3O)CC2)c1C`, the activity change, negative = inhibition is reported as “inactive”.
With `Cc1ccc(Cl)c2sc(NC(=O)C3CC3)nc12` the Potency was inconclusive: 35.5 µM [falling, single point].
In the case of `Fc1cccc(Nc2ncnc3sc4c(c23)CCC4)c1`, the activity change, negative = inhibition is reported as inconclusive: 3.08%.
In the case of `CCCCCCCc1nc2nc(C)c(Br)c(=O)n2[nH]1`, the activity change, negative = inhibition is reported as inconclusive: 340%.
With `NC(=S)NN=C1c2ccccc2-c2ccccc21` the Potency was inconclusive: 22.4 µM [cytotoxic, partial curve].
For `CC(C#Cc1ccc2c(c1)COc1c3ccccc3nn1-2)OC(C)(C)C` (stereo not given), the activity change, negative = inhibition was “inactive”.
With `COc1ccc(NC(=O)CCOc2cc(C)ccc2C)cc1S(=O)(=O)N1CCCCC1` the activity change, negative = inhibition was “inactive”.
With `COc1ccc(/C=C2\N=C3CCCN3C2=O)cc1` the activity change, negative = inhibition was inconclusive: 0.872%.
With `CCOC(=O)C(C)Sc1nnc(NC(=O)c2ccc3c(c2)OCO3)s1` (stereo not given) the activity change, negative = inhibition was inconclusive: 1.06%.
For `Cc1cccnc1NC(=S)Nc1ccc(Cl)c(Cl)c1`, the activity change, negative = inhibition was inconclusive: 7.14%.
In the case of `COc1ccc2cc(S(=O)(=O)N3CCCCC3)ccc2c1S(=O)(=O)N1CCCCC1`, the activity change, negative = inhibition is reported as inconclusive: 5.43%.
For `C=CCn1c(COc2cccc3ccc(C)nc23)nnc1SCC(N)=O`, the activity change, negative = inhibition was inconclusive: 0.282%.
In the case of `CCCCCCCCCCOC(=O)Cn1c(COc2ccc(Cl)cc2)[n+](C)c2ccccc21`, the activity change, negative = inhibition is reported as “inactive”.
With `Cc1ccc(C)c(NC(=O)c2cc(S(=O)(=O)N3CCCCCC3)ccc2F)c1` the activity change, negative = inhibition was inconclusive: 2.23%.
In the case of `CC(C)c1[nH]nc2c1C(c1cccnc1)C(C#N)=C(N)O2` (stereo not given), the activity change, negative = inhibition is reported as inconclusive: -6.91%.
For `O=S(=O)(c1ccc(Cl)cc1Br)N1CCCCC1`, the activity change, negative = inhibition was inconclusive: 0.749%.
In the case of `Cc1ccccc1NC(=O)CN1CCC(n2nnc3ccccc32)CC1`, the activity change, negative = inhibition is reported as “inactive”.
For `C/C(=C\C(=O)O)C12CC3CC(CC(C3)C1)C2`, the activity change, negative = inhibition was inconclusive: 21.6%.
In the case of `Cn1cccc1C(=O)NC(=O)CSc1cccc[n+]1[O-]`, the Potency is reported as inconclusive: 31.6 µM [falling, single point].
In the case of `C=CCn1c(COc2ccc(Cl)cc2)nnc1SCC(=O)N/N=C/c1cccc(O)c1`, the activity change, negative = inhibition is reported as “inactive”.
With `Cn1c(=N)n(CC(=O)c2ccc(Cl)c(Cl)c2)c2ccccc21` the activity change, negative = inhibition was inconclusive: 396%.
With `CSCCC(NC(=O)c1cccc(S(=O)(=O)N2CCOCC2)c1)C(=O)Nc1ccc(F)cc1` (stereo not given) the Potency was inconclusive: 0.411 µM [falling, full curve, poor fit].
In the case of `Cc1cccc(Nc2c([N+](=O)[O-])cc(C(=O)N3CC(=O)Nc4ccccc43)cc2[N+](=O)[O-])c1`, the activity change, negative = inhibition is reported as inconclusive: -14.5%.
For `Cc1ccc2nc(Nc3ccccc3)c(/C=N/O)c(=O)n2c1`, the Potency was inconclusive: 9.2 µM [rising, partial curve].
In the case of `CC1=C(C(=O)OC(C)C)C(c2ccc(F)cc2)NC(=O)N1` (stereo not given), the activity change, negative = inhibition is reported as inconclusive: 9.89%.
With `Cc1c(C)[n+](=O)c2c(n1[O-])C(Br)CCC2Br` (stereo not given) the activity change, negative = inhibition was inconclusive: 14.5%.
In the case of `COc1ccccc1C(=O)COC(=O)Cc1c[nH]c2ccccc12`, the activity change, negative = inhibition is reported as inconclusive: -25%.
With `COc1ccc2c(c1)c1nnc(SCC(=O)N3C(C)CCCC3C)nc1n2C` (stereo not given) the activity change, negative = inhibition was “inactive”.
In the case of `O=C(C[n+]1cc(-c2ccc(Cl)cc2)n2c1CCC2)Nc1nc(-c2ccccc2)cs1`, the Potency is reported as inconclusive: 17.8 µM [falling, single point].
In the case of `COCCCNC(=O)CC1C[C@H](C(=O)N2CCCCC2)[C@@]2(C)c3[nH]c4ccc(OC)cc4c3CCN2C1=O` (stereo not given in full), the activity change, negative = inhibition is reported as “inactive”.
With `Cc1c(C(=O)NC2CC2)oc2ccccc12` the activity change, negative = inhibition was inconclusive: 3.31%.
With `O=C(NCC(=O)N(Cc1cccs1)C(C(=O)NC1CCCCC1)c1cccnc1)c1ccco1` (stereo not given) the Potency was inconclusive: 0.58 µM [rising, full curve, poor fit].
